No constants are given. Whether binding was seen depends on the method and setting. Binding calls can cover weak binding; strength is not graded here.

Chains of the proteins cited; added tags and fusions are not shown. Lines headed by an entry give the natural chain unless they say otherwise; changes in a name come on top. Residues count along the entry.
UniProt P15962, residues 1-296: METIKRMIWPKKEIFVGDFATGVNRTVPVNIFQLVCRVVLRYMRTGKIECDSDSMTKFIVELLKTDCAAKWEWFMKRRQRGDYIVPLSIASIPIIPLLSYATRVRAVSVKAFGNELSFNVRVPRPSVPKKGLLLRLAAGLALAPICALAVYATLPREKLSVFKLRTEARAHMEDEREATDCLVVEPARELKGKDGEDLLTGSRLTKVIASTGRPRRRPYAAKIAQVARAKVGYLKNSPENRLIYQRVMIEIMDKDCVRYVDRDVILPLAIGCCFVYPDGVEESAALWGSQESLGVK
UniProt Q03048: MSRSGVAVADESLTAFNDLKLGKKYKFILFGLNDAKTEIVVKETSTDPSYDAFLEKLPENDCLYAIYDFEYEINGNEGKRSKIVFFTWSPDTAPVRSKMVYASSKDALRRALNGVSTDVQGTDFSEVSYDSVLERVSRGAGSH

Consider three substances from PMC4749184.

The assay has as its target TBSV p33 replication protein (bait of the split-ubiquitin assay) (Tomato bushy stunt virus) (UniProt P15962). Kind of assay: two-hybrid; split-ubiquitin assay in yeast; p33 as bait co-expressed with NubG prey proteins; SSA1 and the empty prey vector (NubG-X) as positive and negative controls.
Take “Cof1p mutant cof1-5 ts, split-ubiquitin prey (from UniProt Q03048)”: the binding result is recorded as “binds”.

On to “Cof1p mutant cof1-20, split-ubiquitin prey (from UniProt Q03048)”, for which the binding entry is recorded as “binds”.

Turning to “Cof1p mutant cof1-8 ts, split-ubiquitin prey (from UniProt Q03048)”, the binding result is reported as “binds”.
